Measurements published in article PMC3991680.
No constants are given. Whether binding was seen depends on the method and setting. In cells and extracts the contact can be indirect. Some binding calls cover weakened binding; strength is not graded here. Sequences can lack the tags named with a protein.

Amino acid sequences for entries named in this document (tags omitted). Residues count along the entry.
UniProt Q4ZJM7, residues 24-482: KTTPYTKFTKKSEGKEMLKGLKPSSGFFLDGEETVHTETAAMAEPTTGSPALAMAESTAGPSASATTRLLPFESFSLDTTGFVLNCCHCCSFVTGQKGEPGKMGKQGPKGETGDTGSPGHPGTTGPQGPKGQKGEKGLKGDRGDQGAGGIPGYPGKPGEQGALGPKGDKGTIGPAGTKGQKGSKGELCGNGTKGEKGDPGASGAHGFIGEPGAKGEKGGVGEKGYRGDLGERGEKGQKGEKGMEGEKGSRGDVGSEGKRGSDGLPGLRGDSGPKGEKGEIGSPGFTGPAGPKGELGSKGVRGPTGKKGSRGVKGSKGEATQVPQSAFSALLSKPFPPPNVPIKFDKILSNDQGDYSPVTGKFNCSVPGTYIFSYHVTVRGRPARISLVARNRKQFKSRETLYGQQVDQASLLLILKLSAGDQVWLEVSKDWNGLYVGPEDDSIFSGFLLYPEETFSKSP

Molecular target: T1, recombinant histidine tagged mouse Otoconin-90 (mouse) (UniProt Q9Z0L3)
T1 sequence: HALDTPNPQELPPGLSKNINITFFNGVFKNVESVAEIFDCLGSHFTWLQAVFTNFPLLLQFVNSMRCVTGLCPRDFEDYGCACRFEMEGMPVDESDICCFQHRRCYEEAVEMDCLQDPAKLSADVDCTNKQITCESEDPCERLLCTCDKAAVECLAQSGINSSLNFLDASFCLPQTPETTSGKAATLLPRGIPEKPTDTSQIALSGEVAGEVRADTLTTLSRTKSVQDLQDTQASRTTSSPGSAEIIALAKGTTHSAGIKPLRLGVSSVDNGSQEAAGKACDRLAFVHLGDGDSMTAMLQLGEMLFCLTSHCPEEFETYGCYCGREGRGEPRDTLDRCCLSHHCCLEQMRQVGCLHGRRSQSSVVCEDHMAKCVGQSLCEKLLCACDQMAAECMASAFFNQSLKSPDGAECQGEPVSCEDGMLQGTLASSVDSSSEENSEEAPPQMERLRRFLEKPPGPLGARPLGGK
Experiment: pull-down; His-tag pull down; preliminary, data not shown

binding: binds
Substance: recombinant mouse Otolin-1-Flag (from UniProt Q4ZJM7 24-482)
